The record followed here is patent US10695406B2, “Modulation of cellular stress using a B-cell oxidative and/or endoplasmic reticulum stress inhibitor and a targeting agent” (THE UNIVERSITY OF QUEENSLAND, priority 2014, dated 2020).

“Also recorded” adds a separate entry of the source.

The data set relates to MIN6N8 murine β-cells. As to the kind of experiment: ER stress (ERAI reporter of Xbp1-splicing / Xbp1 splicing) in MIN6N8 β-cells. In kind it is cell-based. As to conditions: pharmacological inhibitors and siRNA; for Excluded Transcription Factors/Kinases: not required for the cytokine to induce ER stress; for Required Transcription Factors/Kinases: required for the cytokine to induce ER stress. The protocol:
MIN6N8 cells are maintained in line with standard protocols. Cells are transfected with either the ERAI reporter plasmid (F-XBP1ΔDBD-Venus), or the ATF6-GFP plasmid (ADGENE), using LIPFECTAMINE 2000 according to the manufacturer's instructions.
On induction of ER stress, splicing of […] mRNA by IRE1a results in the translation of Venus, but not an active form of XBP1. Fluorescence was measured (excitation: 485 nm; emission: 520 nm) using the POLARstar Omega plate reader and cells were treated 48 h after transfection. The results are normalized with Gapdh expression as fold of vehicle-treated control (Con) cells.
Activation of ATF6 was assessed as follows: the area in pixels per square millimeter co-stained ATF6 and DAPI (blue and green), and total ATF6 staining (green) was determined in 5 fields of view for each section (n=6 for each condition) using IMAGEJ software version 1.45s. Data are presented as the percentage of ATF6 and DAPI co-fluorescence to the total ATF6 fluorescence. Phosphorylation of Ser-51 of eiF2 α was determined by an AlphaScreen assay as per the manufacturer's instructions (PERKIN-ELMER). The Griess reagent method was performed according to the manufacturer's instructions (MOLECULAR PROBES) to assess the intracellular levels of nitric oxide. 5-(and -6-)-carboxy-2,7-dichlorofluorescein diacetate (DCFDA) assay was used to determine the intracellular levels of H2O2 as previously described (Sakon et al., 2003). Cells were treated with glucose or recombinant cytokines at the concentrations indicated in the figure legends, or with 5 μM thapsigargin (SIGMA-ALDRICH) or 10 μg/mL tunicamycin (SIGMA-ALDRICH) or 0.1-0.5 mM Palmitate (SIGMA-ALDRICH) for the times indicated in the legends. ROS was […] using the dihydroethidium (DHE) fluorescent cell-permeable probe (SIGMA-ALDRICH). MIN6N8 cells plated at 2×10^6/mL were incubated with 3 μM DHE and subsequently treated with DMSO (control), 50 ng/mL IL-23 for 30 minutes±[…] IL-22 at the same time or 30 minutes prior to IL-23.
To inhibit transcription factors the following specific inhibitors (and concentrations) were used:
MIN6N8 cells were exposed to a panel of cytokines to determine the effect of each cytokine on ER stress. ER stress was measured using the above-described method. Specifically, the cells were exposed to either a 24 hour treatment of any one of […] glucose (hi glucose), 10 μM H2O2, 0.5 mM palmitic acid or 50 ng/mL cytokines; or a 6 hour treatment with 10 μg/mL tunicamycin or 5 μM thapsigargin.
Experiments to assess ER and/or oxidative stress, and methods of qRT-PCT and/or quantifying gene expression were performed as described for Example 1. Xbp1 splicing is assessed by qRT-PCR, with normalization versus Gapdh, and expression presented as fold of vehicle-treated control cells.

With IL-23: ER stress-inducing cytokine, the “Excluded Transcription Factors/Kinases” value is “STAT1, STAT5” and the “Required Transcription Factors/Kinases” value is on record as “STAT3”.

As to MIP-2α: ER stress-inducing chemokine, the “Excluded Transcription Factors/Kinases” value is listed as “ERK, JNK, NFκB,; also recorded: STAT1, STAT3,; also recorded: STAT5” and the “Required Transcription Factors/Kinases” value is “None identified”. In the case of IL-17A: ER stress-inducing cytokine, the “Excluded Transcription Factors/Kinases” value is given as “ERK”. For IFN-γ: ER stress-inducing cytokine, the “Excluded Transcription Factors/Kinases” value is reported as “STAT1” and the “Required Transcription Factors/Kinases” value is on record as “NFκB”. For the molecule IL-1β: ER stress-inducing cytokine, the “Excluded Transcription Factors/Kinases” value is “ERK, JNK” and the “Required Transcription Factors/Kinases” value is “NFκB”.

B1: IL-24: ER stress-inducing cytokine (protein, UniProt Q13007 52-206, looked up)
Interleukin-24: QEFHFGPCQVKGVVPQKLWEAFWAVKDTMQAQDNITSARLLQQEVLQNVSDAESCYLVHTLLEFYLKTVFKNYHNRTVEVRTLKSFSTLANNFVLIVSQLQPSQENEMFSIRDSAHRRFLLFRRAFKQLDVEAALTKALGEVDILLTWMQKFYKL
On to B1, for which the “Excluded Transcription Factors/Kinases” value was “STAT3” and the “Required Transcription Factors/Kinases” value is reported as “STAT1”.

B2: IL-33: ER stress-inducing cytokine (protein, UniProt O95760 1-270, looked up)
Interleukin-33: MKPKMKYSTNKISTAKWKNTASKALCFKLGKSQQKAKEVCPMYFMKLRSGLMIKKEACYFRRETTKRPSLKTGRKHKRHLVLAACQQQSTVECFAFGISGVQKYTRALHDSSITGISPITEYLASLSTYNDQSITFALEDESYEIYVEDLKKDEKKDKVLLSYYESQHPSNESGDGVDGKMLMVTLSPTKDFWLHANNKEHSVELHKCEKPLPDQAFFVLHNMHSNCVSFECKTDPGVFIGVKDNHLALIKVDSSENLCTENILFKLSET
In the case of B2, the “Excluded Transcription Factors/Kinases” value is “ERK, JNK, STAT1,; also recorded: STAT3” and the “Required Transcription Factors/Kinases” value is reported as “NFκB, STAT5^2”.
